{
  "sequences": {"note": "The chains behind the UniProt entries cited, without tags or fusion partners. Residues count along the entry.", "UniProt P56958": "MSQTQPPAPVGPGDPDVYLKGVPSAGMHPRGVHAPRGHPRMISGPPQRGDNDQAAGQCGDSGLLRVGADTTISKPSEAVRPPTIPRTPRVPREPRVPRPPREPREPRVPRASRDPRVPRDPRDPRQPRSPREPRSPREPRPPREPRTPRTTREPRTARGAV", "UniProt Q14790, residues 217-374": "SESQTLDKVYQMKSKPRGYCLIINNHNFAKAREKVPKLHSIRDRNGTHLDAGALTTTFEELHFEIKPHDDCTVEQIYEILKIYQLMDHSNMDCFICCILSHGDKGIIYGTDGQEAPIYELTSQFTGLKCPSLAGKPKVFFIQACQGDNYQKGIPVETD"},
  "source": "paper PMC9296525",
  "molecular_target": "HSV-1 tegument protein Us11 (HSV-1 strain F) (UniProt P56958)",
  "experiment": "co-IP; lysate of THP-1 cells infected with HSV-1 (MOI 50, 18 h p.i.) or mock-infected; anti-Us11 monoclonal antibody pre-adsorbed on protein A-Sepharose beads, overnight at 4 °C; lysis buffer 20 mM Tris-HCl pH 8, 200 mM NaCl, 1% Nonidet P-40; blot with anti-caspase-8 (12F5)",
  "note": "Results are given in words; binding and its absence hold for the method and conditions named. Binding seen in cells or lysates may run through a third protein. Some entries that bind do so weakly or less than the wild type.",
  "data": [
    {"substance": "caspase-8 p18 cleaved fragment (from UniProt Q14790 217-374) (domain or fragment)", "values": [
      {"measurement": "binding", "value": "binds"}
    ]}
  ]
}
